# From PubChem BioAssay
# Chains of the proteins cited; added tags and fusions are not shown. Lines headed by an entry give the natural chain unless they say otherwise; changes in a name come on top.
# UniProt Q9H2X9: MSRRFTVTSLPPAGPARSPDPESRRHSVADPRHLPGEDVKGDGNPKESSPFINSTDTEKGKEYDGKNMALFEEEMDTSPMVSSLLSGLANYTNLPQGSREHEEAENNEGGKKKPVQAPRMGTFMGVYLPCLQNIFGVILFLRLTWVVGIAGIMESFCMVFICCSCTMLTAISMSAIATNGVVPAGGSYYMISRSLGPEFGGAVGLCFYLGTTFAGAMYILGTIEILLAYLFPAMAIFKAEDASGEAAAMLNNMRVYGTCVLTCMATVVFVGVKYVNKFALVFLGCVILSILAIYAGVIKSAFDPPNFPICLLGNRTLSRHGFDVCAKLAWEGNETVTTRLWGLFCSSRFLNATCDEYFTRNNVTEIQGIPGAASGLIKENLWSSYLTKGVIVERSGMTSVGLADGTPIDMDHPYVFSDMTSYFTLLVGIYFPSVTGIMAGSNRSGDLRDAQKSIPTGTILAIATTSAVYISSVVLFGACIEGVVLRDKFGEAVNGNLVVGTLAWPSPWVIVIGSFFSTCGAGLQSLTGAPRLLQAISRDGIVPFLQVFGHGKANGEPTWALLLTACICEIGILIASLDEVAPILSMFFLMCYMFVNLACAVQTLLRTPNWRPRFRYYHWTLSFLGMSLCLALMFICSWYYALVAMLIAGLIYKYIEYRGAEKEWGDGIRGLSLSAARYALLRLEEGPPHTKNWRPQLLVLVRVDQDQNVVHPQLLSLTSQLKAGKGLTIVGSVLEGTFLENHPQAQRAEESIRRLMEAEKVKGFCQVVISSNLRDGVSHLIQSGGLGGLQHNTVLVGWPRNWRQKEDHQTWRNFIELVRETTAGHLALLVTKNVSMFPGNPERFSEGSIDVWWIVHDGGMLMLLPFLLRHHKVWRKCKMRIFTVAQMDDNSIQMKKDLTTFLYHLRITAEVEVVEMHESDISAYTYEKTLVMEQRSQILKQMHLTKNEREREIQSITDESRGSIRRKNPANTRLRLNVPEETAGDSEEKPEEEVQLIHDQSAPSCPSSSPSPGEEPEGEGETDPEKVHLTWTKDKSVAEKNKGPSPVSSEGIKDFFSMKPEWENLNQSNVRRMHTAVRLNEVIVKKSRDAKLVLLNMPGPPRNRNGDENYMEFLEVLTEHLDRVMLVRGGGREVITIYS
# The inconclusive results got no clear call from the source; some entries with a clear call stand among them for comparison. Active and inactive are the calls of the source.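 Rule for the calls, unless noted: active = thallium flux slope above the same plate's solvent-only control mean plus 3 SD; inconclusive = the two replicate wells disagree; inactive = no significant difference from solvent-only control wells.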
# What was measured:
# [1] = molecular target: Solute carrier family 12 member 5 (Homo sapiens) (UniProt Q9H2X9); assay: retest of KCC2 transport modulators without sodium – cell-based, HEK293 KCC2, thallium flux, secondary assay, confirmation (AID 1713); details: FluoZin2 fluorescence, at 10 µM, hits give high values
# Method in brief: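 Test system: KCC2-expressing HEK cells. Medium: Sodium-free N-methylglucamine chloride buffer. Schedule: dye loading 48 min. Technique: kinetic thallium-flux fluorescence imaging.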
# [2] = molecular target: Solute carrier family 12 member 5 (Homo sapiens) (UniProt Q9H2X9); assay: modulation of KCC2 thallium flux in HEK cells – cell-based, ouabain, retest, confirmation (AID 1717;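 active = thallium flux slope beyond 3 SD from same-plate DMSO control mean in most replicates, usually higher, sometimes lower; inconclusive = repeat tests gave conflicting results; inactive = no significant difference from controls in most replicates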;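 note: slope of initial-normalized fluorescence between seconds 10 and 20 after thallium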); details: HEK293-KCC2, thallium flux FluoZin2 fluorescence, at 10 µM, bidirectional: low = inhibitor, high = activator
SMILES,normalised thallium flux (F/F0 slope) [1],"raw Tl+ flux slope (below DMSO = inhibition, above = activation) [2]"
Cc1nn(-c2ccccc2)c2sc(-c3n[nH]c(=S)o3)cc12,active: 0.0145,inconclusive: 0.0286
Cc1c(Cl)cccc1Nc1ccccc1C(=O)O,inconclusive: 0.011,inconclusive: 0.0275
Cc1c(C(=O)NC(=S)NCc2cccnc2)oc2ccccc12,active: 0.025,active: 0.0308
CC1OC(O[C@H]2CC[C@]3(C)C4C=C[C@]56OC[C@@]7(CC[C@@H](C)[C@H](C)C75)[C@H](O)C[C@@]6(C)[C@]4(C)CC[C@H]3C2(C)C)C(OC2OC(CO)C(O)C(O)C2OC2OCC(O)C(O)C2O)C(O)C1O (stereo not given in full),active: 0.0129,inconclusive: 0.0357
Cc1ccc([N+](=O)[O-])c(-c2n[nH]c(=S)n2-c2cccc(Cl)c2)c1,active: 0.014,inconclusive: 0.0311
CCCCNC(=S)N/N=C/c1cc(C)ccc1C,inconclusive: 0.00812,inconclusive: 0.0234
O=C(Nc1ccc(OC(F)(F)F)cc1)c1[nH]ncc1[N+](=O)[O-],inactive: 0.00809,inconclusive: 0.0267
O=C(Nc1nc(-c2ccccc2)cs1)c1cccs1,inconclusive: 0.00617,inconclusive: 0.0167
O=c1cc(-c2ccccc2)nc2cc(-c3ccco3)[nH]n12,inconclusive: 0.00975,inconclusive: 0.0235
S=C(Nc1ccccc1)Nc1ccccc1-n1cccc1,active: 0.0138,inconclusive: 0.0297
CCc1cc2c(SCc3nc4sc(C(C)=O)c(C)c4c(=O)[nH]3)ncnc2s1,inconclusive: 0.00861,active: 0.0529
CNC(=S)N/N=C(\C)c1cccc(C(F)(F)F)c1,inconclusive: 0.0117,inconclusive: 0.0348
Cc1ccc(C(=S)N2CCN(Cc3ccccc3)CC2)cc1,inconclusive: 0.00629,active: 0.0154
CC(/C=C/c1ccccc1)=N\NC(=S)NC(C)C,inactive: 0.00683,inconclusive: 0.0247
O=C(OCC(=O)N1CCc2ccccc2C1)c1ccc(N2CCOCC2)c([N+](=O)[O-])c1,inactive: 0.00556,inconclusive: 0.0155
O=C(/C=C/Nc1nccs1)C(F)(F)Cl,inconclusive: 0.00857,inconclusive: 0.0265
C=CCn1c(O)c(N=NC(=S)Nc2ccccc2C)c2cc(S(=O)(=O)N3CCOCC3)ccc21,active: 0.0134,inactive: 0.0287
CCOCCCNC(=O)c1ccc(-n2c(=S)[nH]c3ccccc3c2=O)cc1,inconclusive: 0.01,inconclusive: 0.0265
COn1c(SC2CCCCC2)nc2ccccc2c1=O,inconclusive: 0.0102,inconclusive: 0.0234
C/C(=C\C(=O)c1ccc(Br)cc1)N1CCCCC1,inconclusive: 0.0107,inconclusive: 0.0337

# Single records, from the list above.
# O=C(Nc1ccc(OC(F)(F)F)cc1)c1[nH]ncc1[N+](=O)[O-] reads normalised thallium flux (F/F0 slope) [1]: inactive: 0.00809; raw Tl+ flux slope (below DMSO = inhibition, above = activation) [2]: inconclusive: 0.0267
# Cc1ccc(C(=S)N2CCN(Cc3ccccc3)CC2)cc1 reads normalised thallium flux (F/F0 slope) [1]: inconclusive: 0.00629; raw Tl+ flux slope (below DMSO = inhibition, above = activation) [2]: active: 0.0154

# Later entries:

SMILES,normalised thallium flux (F/F0 slope) [1],"raw Tl+ flux slope (below DMSO = inhibition, above = activation) [2]"
COc1cc(NC(=S)NC(=O)c2cccs2)ccc1NC(=O)C(C)C,inactive: 0.00987,inconclusive: 0.029
Cn1c(SCC(=O)NCc2ccccc2)nc2ccccc21,inconclusive: 0.00488,inactive: 0.019
O=C(NNC(=S)NC(=O)c1cn(-c2ccccc2)nc1-c1ccccc1)c1ccncc1,inactive: 0.00764,inconclusive: 0.024
CCc1cc(-c2n[nH]c(=S)n2Cc2ccccc2)cs1,inactive: 0.00671,inconclusive: 0.0269
CCCCc1c(C)nc2cc(-c3ccco3)[nH]n2c1=O,inactive: 0.00726,inconclusive: 0.0235
COC(=O)c1ccc(CSc2nc3ccccc3c(=O)n2CC(C)C)o1,inactive: 0.00737,inconclusive: 0.0236
COC(=O)c1sccc1NC(=S)OC,inconclusive: 0.00829,inconclusive: 0.0253
CCOc1ccc(NC(=O)c2cc3c(=O)n(C)c4ccccc4c3n2C)cc1,inactive: 0.00768,inconclusive: 0.0175
Cc1cc(NC(=O)CSc2nc(C(C)C)nc3sc(C)c(C)c23)no1,inconclusive: 0.0118,inconclusive: 0.0312
CN1/C(=C\C(=O)COc2ccc3c(c2)OCO3)C(C)(C)c2ccccc21,inactive: 0.00827,inconclusive: 0.0179
CCCn1c(SCC(N)=O)nc2c(c1=O)C1(CCCC1)Cc1ccccc1-2,active: 0.0132,inconclusive: 0.0313
COc1ccccc1/C(C)=N/NC(=S)NCc1ccccc1,inactive: 0.00669,inconclusive: 0.023
CCCCNC(=S)N/N=C/c1ccc(C)s1,inconclusive: 0.0192,active: 0.0208
O=C(NNC(=O)c1cc2ccccc2o1)c1ccc(Cl)cc1,inactive: 0.01,inconclusive: 0.0283
CC(=O)c1cccc(NC(=S)NC(=O)c2ccccc2Br)c1,active: 0.014,inconclusive: 0.0314
CCc1c(-c2n[nH]c(=S)n2Cc2ccccc2)csc1C,inconclusive: 0.0109,active: 0.0346
CCCCN(CC)S(=O)(=O)c1ccc(C(=O)Nc2nnc(-c3cccs3)o2)cc1,active: 0.016,active: 0.0504
CC1OC(OC2C(OC3C(O[C@H]4CC[C@]5(C)C6C=C[C@]78OC[C@@]9(CC[C@@H](C)[C@H](C)C97)[C@H](O)C[C@@]8(C)[C@]6(C)CC[C@H]5C4(C)C)OC(C)C(O)C3O)OC(CO)C(O)C2O)C(O)C(O)C1O (stereo not given in full),inconclusive: 0.0173,inconclusive: 0.0328
Cn1nnc(NC(=S)NC(=O)c2ccc(-c3ccc(Br)cc3)o2)n1,active: 0.0141,inconclusive: 0.0282
COc1ccc(S(=O)(=O)NC(CC(=O)NCCc2ccccc2)c2ccco2)cc1 (stereo not given),inactive: 0.0071,inconclusive: 0.0173
